These are yes or no findings as the source states them, for the method shown. Binding seen in cells or lysates may run through a third protein. Some results given as binding are weak or reduced against the parent protein; the word gives no strength. For some assays here: Where a sequence is shown, tags or fusion partners need not be part of it.
Columns and labels:
Assay in all cases: co-IP; lysates of transiently transfected NIH-3T3 cells (untreated, Olaparib- or Camptothecin-treated; RNase A added to lysates in one experiment) immunoprecipitated with anti-HA antibody (anti-DIDO3 CT-specific antibody for ∆NT and SPCT), Protein A/G magnetic beads, Western blot for endogenous PARP1 and DHX9
[1] = biological target: T1, HA-DIDO-NT (mouse) (UniProt Q8C9B9)
T1 sequence: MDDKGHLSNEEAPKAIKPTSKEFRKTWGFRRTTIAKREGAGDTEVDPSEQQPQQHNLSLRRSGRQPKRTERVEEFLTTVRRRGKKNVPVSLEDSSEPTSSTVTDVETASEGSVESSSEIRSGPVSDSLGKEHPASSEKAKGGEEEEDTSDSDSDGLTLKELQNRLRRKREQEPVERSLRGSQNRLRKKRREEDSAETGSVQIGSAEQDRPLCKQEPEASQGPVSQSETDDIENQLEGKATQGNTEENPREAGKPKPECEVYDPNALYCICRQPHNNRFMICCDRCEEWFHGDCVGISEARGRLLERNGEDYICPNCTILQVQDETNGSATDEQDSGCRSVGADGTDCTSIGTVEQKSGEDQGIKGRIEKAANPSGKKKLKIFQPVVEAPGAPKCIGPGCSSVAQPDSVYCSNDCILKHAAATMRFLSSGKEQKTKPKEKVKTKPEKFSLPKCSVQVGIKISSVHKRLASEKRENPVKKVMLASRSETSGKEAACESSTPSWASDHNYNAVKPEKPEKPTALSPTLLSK

The chains behind the UniProt entries cited, without tags or fusion partners.
UniProt P11103: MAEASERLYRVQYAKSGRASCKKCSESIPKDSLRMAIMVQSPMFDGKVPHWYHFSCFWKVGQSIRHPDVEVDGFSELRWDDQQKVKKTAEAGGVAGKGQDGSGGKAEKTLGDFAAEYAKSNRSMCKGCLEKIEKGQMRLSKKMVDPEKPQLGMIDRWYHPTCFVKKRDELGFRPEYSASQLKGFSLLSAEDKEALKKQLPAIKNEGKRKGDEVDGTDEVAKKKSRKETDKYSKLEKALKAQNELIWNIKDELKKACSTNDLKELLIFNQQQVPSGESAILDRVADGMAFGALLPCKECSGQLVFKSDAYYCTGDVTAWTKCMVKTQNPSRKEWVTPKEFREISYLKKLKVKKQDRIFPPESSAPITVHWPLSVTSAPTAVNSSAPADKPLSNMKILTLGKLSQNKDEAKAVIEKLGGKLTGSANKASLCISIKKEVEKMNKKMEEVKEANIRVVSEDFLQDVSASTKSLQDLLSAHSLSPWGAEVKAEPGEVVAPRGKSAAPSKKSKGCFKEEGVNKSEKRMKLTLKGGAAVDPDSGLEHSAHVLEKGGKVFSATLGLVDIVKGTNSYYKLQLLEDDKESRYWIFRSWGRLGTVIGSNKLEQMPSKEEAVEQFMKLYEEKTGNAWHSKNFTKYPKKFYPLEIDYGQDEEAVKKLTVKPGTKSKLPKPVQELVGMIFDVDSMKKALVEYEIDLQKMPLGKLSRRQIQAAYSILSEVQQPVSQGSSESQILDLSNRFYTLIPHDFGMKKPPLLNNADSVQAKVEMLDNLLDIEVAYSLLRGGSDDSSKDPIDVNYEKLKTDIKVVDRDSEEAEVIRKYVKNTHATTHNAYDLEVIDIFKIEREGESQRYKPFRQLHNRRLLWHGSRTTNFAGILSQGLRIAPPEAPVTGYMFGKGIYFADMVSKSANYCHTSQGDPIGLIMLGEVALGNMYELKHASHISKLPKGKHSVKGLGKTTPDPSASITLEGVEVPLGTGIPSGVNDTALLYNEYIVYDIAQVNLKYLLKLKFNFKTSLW
UniProt O70133: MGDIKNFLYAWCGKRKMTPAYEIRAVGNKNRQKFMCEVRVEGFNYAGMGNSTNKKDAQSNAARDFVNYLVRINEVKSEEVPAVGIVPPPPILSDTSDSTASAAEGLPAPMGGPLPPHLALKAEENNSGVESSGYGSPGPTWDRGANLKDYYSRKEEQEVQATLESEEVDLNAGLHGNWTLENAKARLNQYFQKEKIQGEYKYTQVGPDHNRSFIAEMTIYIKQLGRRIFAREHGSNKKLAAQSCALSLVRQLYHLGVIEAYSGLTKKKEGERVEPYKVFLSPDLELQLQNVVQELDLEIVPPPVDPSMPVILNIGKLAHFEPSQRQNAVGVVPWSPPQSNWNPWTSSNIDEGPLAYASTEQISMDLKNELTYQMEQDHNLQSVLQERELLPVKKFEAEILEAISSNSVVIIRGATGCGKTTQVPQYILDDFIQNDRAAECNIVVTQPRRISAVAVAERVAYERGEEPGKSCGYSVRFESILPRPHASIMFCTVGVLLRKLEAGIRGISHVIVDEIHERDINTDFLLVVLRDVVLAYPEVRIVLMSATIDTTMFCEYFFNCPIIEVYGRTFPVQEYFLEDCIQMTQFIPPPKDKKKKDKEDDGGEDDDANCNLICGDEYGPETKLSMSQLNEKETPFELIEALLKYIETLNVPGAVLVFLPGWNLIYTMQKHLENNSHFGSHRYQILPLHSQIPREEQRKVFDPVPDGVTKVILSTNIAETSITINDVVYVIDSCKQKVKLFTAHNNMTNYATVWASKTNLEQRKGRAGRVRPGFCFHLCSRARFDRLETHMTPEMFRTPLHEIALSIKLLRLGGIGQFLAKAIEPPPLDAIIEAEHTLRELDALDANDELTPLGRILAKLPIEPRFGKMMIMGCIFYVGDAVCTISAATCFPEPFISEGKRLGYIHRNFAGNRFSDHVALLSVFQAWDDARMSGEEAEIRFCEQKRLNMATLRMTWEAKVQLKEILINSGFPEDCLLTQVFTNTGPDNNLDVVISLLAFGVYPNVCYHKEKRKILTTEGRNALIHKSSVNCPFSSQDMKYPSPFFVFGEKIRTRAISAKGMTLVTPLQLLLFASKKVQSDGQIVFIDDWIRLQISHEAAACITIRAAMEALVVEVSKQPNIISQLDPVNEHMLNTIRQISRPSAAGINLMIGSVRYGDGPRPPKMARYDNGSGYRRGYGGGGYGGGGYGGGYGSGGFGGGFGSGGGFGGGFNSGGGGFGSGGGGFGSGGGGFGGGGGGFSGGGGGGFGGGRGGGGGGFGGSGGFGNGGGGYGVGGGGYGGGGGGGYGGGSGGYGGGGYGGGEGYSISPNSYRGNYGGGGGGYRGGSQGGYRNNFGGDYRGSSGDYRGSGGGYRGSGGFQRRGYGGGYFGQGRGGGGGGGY

[2] = biological target: T2, HA-DIDO-NTs (mouse) (UniProt Q8C9B9)
T2 sequence: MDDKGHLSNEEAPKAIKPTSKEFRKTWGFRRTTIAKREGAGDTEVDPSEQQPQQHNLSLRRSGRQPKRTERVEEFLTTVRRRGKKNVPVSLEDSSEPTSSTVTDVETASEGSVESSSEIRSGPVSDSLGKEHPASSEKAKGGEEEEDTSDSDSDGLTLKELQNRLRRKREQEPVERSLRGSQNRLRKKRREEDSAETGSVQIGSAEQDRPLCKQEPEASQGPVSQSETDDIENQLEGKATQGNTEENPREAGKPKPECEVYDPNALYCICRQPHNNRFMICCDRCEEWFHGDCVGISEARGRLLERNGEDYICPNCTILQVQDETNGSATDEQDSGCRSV

[3] = biological target: T3, HA-DIDO2 (mouse) (UniProt Q8C9B9)
T3 sequence: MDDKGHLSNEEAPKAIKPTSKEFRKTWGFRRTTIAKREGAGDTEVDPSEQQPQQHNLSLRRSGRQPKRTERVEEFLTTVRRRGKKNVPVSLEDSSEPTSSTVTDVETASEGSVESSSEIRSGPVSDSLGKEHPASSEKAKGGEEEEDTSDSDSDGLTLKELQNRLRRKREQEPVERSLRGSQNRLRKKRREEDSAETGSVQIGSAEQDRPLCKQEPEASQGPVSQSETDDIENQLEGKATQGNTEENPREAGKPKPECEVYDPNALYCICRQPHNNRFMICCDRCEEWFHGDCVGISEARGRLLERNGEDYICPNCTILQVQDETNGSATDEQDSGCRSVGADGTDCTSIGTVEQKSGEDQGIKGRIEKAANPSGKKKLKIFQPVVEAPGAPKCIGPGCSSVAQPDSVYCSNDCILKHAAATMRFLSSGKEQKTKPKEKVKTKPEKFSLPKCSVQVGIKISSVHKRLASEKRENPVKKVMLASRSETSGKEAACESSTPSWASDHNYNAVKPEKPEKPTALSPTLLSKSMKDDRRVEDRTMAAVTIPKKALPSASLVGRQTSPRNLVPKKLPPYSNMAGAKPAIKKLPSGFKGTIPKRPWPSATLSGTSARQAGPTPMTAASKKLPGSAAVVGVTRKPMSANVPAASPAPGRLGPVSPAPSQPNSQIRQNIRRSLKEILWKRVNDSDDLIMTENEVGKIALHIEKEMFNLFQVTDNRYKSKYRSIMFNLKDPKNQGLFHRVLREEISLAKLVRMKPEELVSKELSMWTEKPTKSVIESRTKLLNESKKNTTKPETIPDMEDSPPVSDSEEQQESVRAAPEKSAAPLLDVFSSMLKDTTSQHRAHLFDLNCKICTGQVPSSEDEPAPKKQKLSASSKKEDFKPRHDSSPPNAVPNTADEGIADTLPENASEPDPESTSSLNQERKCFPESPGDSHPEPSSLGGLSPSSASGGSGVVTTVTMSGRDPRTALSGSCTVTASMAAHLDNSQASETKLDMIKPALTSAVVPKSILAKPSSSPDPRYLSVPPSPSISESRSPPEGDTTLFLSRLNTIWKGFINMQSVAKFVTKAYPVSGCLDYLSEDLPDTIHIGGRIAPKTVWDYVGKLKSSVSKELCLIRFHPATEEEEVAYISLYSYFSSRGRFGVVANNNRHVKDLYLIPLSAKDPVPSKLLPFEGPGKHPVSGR

[4] = biological target: HA-tagged full-length DIDO3 (mouse) (UniProt Q8C9B9)

Row | Substance | binding [1] | binding [2] | binding [3] | binding [4]
1 | PARP1 (from UniProt P11103 1-1013) | binds | binds | binds | binds
2 | DHX9 (from UniProt O70133 1-1380) | – | – | – | binds

Reference: PMC10814579
